Data from patent US20250223628A1, “METHODS OF IMPROVING SURVIVAL AND ELIMINATING TREATMENT-LIMITING TOXICITIES OF DICHLOROACETATE IN PATIENTS WITH PYRUVATE DEHYDROGENASE COMPLEX DEFICIENCY” (SAOL INTERNATIONAL DEVELOPMENT LTD., priority 2024, published 2025).
For at least one compound, name, drawing or mass did not settle the structure.

Legend:
patients with PDCD [1] = assay: Prospective, randomized, double-blind, placebo-controlled crossover study with GSTZ1 haplotype-based DCA dosing and open-label extension; assay type: in vivo, human
Method: A prospective, randomized, double-blind, placebo-controlled crossover study was conducted in patients with PDCD. This study was the first study to prospectively use GSTZ1 haplotype testing to identify a dose that may help to mitigate the risk of peripheral neuropathy from chronic administration of DCA. These patients were treated with either DCA or placebo for 4 months, provided placebo for a 1-month washout period and then were placed on the placebo or DCA, whichever they had not taken prior. Patients then had the option to continue on open-label DCA until the ultimate completion of the study or regulatory approval. 34 PDCD patients were recruited into the study. 7 (21%) of these patients were prospectively identified as “slow metabolizers”. Rather than having a dose of 25 mg/kg/day, these patients were provided DCA doses at 12.5 mg/kg/day. Both dosing groups took DCA in two equal, weight-based doses. This was the first prospective study completed using the haplotype testing and conducted solely in the PDCD patient population.
The study had anticipated a 20% dropout rate due to death or peripheral neuropathy.

patients with PDCD [2] = assay: Survival analysis of DCA treatment cohort versus DeBrosse natural history cohort; assay type: in vivo, human
Method: As a result, an analysis procedure was identified that used the data available in the DeBrosse natural history study to assess whether or not DCA extended life. The analysis was conducted to answer the following questions: • a. Did the year of birth have any effect on survival? For example, has standard of care improved. • b. Is the primary driver of survival differences from natural history driven by the ketogenic diet, the current standard of care, although empirical approach to managing PDCD patients? • c. Once the population is controlled for an index age, gender and age of disease onset, does DCA provide a survival benefit? • d. Once the population is controlled for an index age and age of disease onset, does DCA provide a survival benefit? • e. Once the population has the maximum duration of follow-up, including with patients that discontinued treatment, does DCA provide a survival benefit?
After accounting for two patients with multiple exclusion criteria, 34 patients (14 males and 20 females) from the DeBrosse study remain for potential matching for the current analyses.
Baseline characteristics related to drug and non-drug treatment, age at the earliest recorded of first related symptom, initiation of the ketogenic diet or diagnosis and other baseline demographics were compared for each analysis. It was notable that the Phase III cohort had more females. This was controlled by conducting a 1:1 matched cohort in the primary analysis that requires gender matching.
A summary of all analyses conducted with both Kaplan-Meier log-rank statistics and hazard/odds ratio reductions are provided below: […]

[3] = system: patients with congenital lactic acidosis (CLA); settings: of the 10 patients that had PDCD and adhered to chronic dosing of DCA; cited from earlier work
[4] = system: Dihydrolipoamide (DLD) knockdown worms; assay: C. elegans PDCD disease model, DLD knockdown worms in DCA-containing water; assay type: in vivo; settings: DLD 1:20 worms; 25 mM DCA
PDHA1 knockdown worms = assay: C. elegans PDCD disease model, PDHA1 knockdown worms in DCA-containing water; assay type: in vivo

## O=C(O)C(Cl)Cl [DCA, Dichloroacetate]
Patients with PDCD [1]; at the time the last patient enrolled in the double-blind portion
  Deaths in the open label portion: no observations of death
Patients with PDCD [1]; double-blind study and extension study for patients maintained on therapy
  Deaths: zero
Patients with PDCD [1]; open-label, death 6 months following discontinuation of medication
  Patients who passed away after discontinuing DCA: One
Patients with PDCD [2]; 28 age and gender matched patients
  Life-span: increased life-span
Patients with PDCD [2]; 28 patients with duration follow-up
  Life-span: increased life-span
Patients with PDCD [2]; 32 age matched patients
  Life-span: increased life-span
[3]
  Patients who experienced survival of up to 10 years: 9
[4]
  Lifespan: Statistically significant improvements
PDHA1 knockdown worms; PDHA1 phenotype, DCA 10 uM to 25 mM in water
  All measures of overall worm health (morphology and organ development, activity, mitochondrial stress, lifespan, lactate): dose dependent improvement
PDHA1 knockdown worms; PDHA1 worms, 25 mM DCA
  Lifespan: Statistically significant improvements
PDHA1 knockdown worms; any DCA dose (10 uM to 25 mM), worm model not specified
  Improvement (reduction) in mitochondrial stress: not observed
